Results: patent EP3505527A1, “CYCLIC DINUCLEOTIDES FOR CYTOKINE INDUCTION” (Invivogen, priority 2017, dated 2019)
Some entries share one result that the patent states for a list of compounds.

By UniProt entry, the sequences of proteins in these tests, tags left out. Where a name states a change or a piece, a line headed by the entry shows the natural chain unless it says otherwise.
UniProt Q86WV6: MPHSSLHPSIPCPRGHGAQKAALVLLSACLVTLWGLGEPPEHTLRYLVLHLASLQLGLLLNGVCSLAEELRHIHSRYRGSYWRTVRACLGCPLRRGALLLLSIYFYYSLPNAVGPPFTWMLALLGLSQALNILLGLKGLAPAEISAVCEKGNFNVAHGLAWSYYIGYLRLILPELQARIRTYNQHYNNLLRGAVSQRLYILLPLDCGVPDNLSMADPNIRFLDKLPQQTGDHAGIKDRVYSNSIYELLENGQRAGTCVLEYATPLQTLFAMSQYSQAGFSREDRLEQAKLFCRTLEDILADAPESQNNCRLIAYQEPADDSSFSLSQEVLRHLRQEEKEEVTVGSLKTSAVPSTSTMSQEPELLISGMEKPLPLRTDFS

Assays:
[1] = test system: Type III IFNs (Homo sapiens); experiment: Whole-blood assay from healthy human donors, Type III IFNs read out with HEK-Blue IL-28 cells; type: cell-based; conditions: ≈ 4 µM (Figure 3)
Method: Briefly, the samples were collected by venipuncture into sodium heparin tubes at the time of donation. The samples were analyzed for rhesus (Rh), blood group, hematocrit and serological status (AgHBS, HIV, HCV, HTLV, HBC, CMV, Syph). The tubes were picked up on the day of collection and subsequently tested (blood analysis, and treatment with test items) on the same day.
The desired cytokine induction activity was determined using the QUANTI-Blue™ assay, as previously described.

IRF pathway = IRF pathway (Homo sapiens, UniProt Q86WV6); experiment: In vitro penetration assay for CDN prodrugs, ISG54 reporter in THP-1-Dual cells with shorter induction; conditions: 18h induction (Figure 7)
STING = experiment: STING-dependent cytokine induction, overall activity in words (THP1 Dual in vitro and whole blood ex vivo, Tables 2 to 4); type: cell-based, human; conditions: comment on Tables 2 to 4
From the text: (§1) . The ex vivo (whole blood assay) cytokine-induction activity of a representative set these cyclic dinucleotides is reported here with the same protocol described in Example 2.2.
as §1, §1

CC(C)(C)C(=O)OCSP1(=O)OC[C@H]2O[C@@H](n3cnc4c(=O)n(COC(=O)C(C)(C)C)cnc43)[C@H](F)[C@@H]2OP(=O)(O)OC[C@H]2O[C@@H](n3cnc4c(=O)n(COC(=O)C(C)(C)C)cnc43)[C@H](O1)[C@H]2F (stereo partly drawn) [CL747, (2',3')c-[xylo3'F3'dI(POM)M(PS-POM)-2'FdI(POM)MP]]
induction of type III interferons relative to 2'3'-cGAMP [1]: tend to induce type III IFN response more strongly

CC(C)(C)C(=O)OCSP1(=O)OC[C@H]2O[C@@H](n3cnc4c(N)ncnc43)[C@H](F)[C@@H]2OP(=O)(SCOC(=O)C(C)(C)C)OC[C@H]2O[C@@H](n3cnc4c(=O)[nH]cnc43)[C@H](O1)[C@H]2F (stereo partly drawn) [CL780, (2',3')c-[3'F3'XylodIM(PS-POM)-2'FdAM(PS-POM)]]
activation of ISG response (ability to penetrate cells) (IRF pathway): greater activation of ISG response than their unmodified counterpart

CC(C)(C)C(=O)OCSP1(=O)OC[C@H]2O[C@@H](n3cnc4c(N)ncnc43)[C@H](F)[C@@H]2OP(=O)(SCOC(=O)C(C)(C)C)OC[C@H]2O[C@@H](n3cnc4c(N)ncnc43)[C@H](O1)[C@H]2F (stereo partly drawn) [CL760, (2',3')c-[xylo3'F3'dAM(PS-POM)-2'FdAM(PS-POM)]]
activity of xylose-modified CDNs with 2'5'-3'5' linkage (STING): maintain a strong activity | activation of ISG response (ability to penetrate cells) (IRF pathway): greater activation of ISG response than their unmodified counterpart

CC(C)(C)C(=O)OCSP1(=O)OC[C@H]2O[C@@H](n3cnc4c(N)ncnc43)[C@H](F)[C@@H]2OP(=O)(SCOC(=O)C(C)(C)C)OC[C@H]2O[C@@H](n3cnc4c(=O)[nH]c(N)nc43)[C@H](O1)[C@H]2F (stereo partly drawn) [CL751, (2',3')c-[3'F3'XylodGM(PS-POM)-2'FdAM(PS-POM)]]
activity of xylose-modified CDNs with 2'5'-3'5' linkage (STING): maintain a strong activity

CC(C)(C)C(=O)OCSP1(=O)OC[C@H]2O[C@@H](n3cnc4c(=O)[nH]cnc43)[C@H](F)[C@@H]2OP(=O)(SCOC(=O)C(C)(C)C)OC[C@H]2O[C@@H](n3cnc4c(=O)[nH]cnc43)[C@H](F)[C@@H]2O1 (stereo partly drawn) [CL744, c-di[2'FdIMP(S-POM)]]
induction of type III interferons relative to 2'3'-cGAMP [1]: equivalent
